# Laboratory results from the supplement of paper PMC8728848.
# Some of the results follow.
# B1: Clec18A (Homo sapiens) (protein)
# chain: PFHTCDLRIDGDCFMVSSEADTYYRARMKCQRKGGVLAQIKRQKVQDILAFYLGRLETTNEVIDSDFETRNFWIGLTYKTAKDSFRWATGEHQAFTSFAFGQPDNHGFGNCVELQASAAFNWNDQRCKTRNRYICQ
# What was measured:
# Experiment in all cases: glycan array binding signal (z-score within array); higher = stronger binding
# Details in all cases: glycan notation: IUPAC condensed, linker removed
# [1] = target: Neu5Ac(a2-6)Gal(b1-4)GlcNAc(b1-3)Gal(b1-4)GlcNAc(b1-3)GalNAc
# In short: (§1)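 Glycan array binding is given as a within-array Z-score, which can be read as non-binding when negative. The arrays, 3228 of them, came from the Consortium for Functional Glycomics database and were retained only where the protein sequence was available. Z-scores were averaged across arrays of the same protein sequence at different concentrations or buffers and across linkers.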
# [2] = target: Neu5Ac(a2-6)Gal(b1-4)GlcNAc(b1-3)Gal(b1-4)GlcNAc(b1-3)[Neu5Ac(a2-6)Gal(b1-4)GlcNAc(b1-3)Gal(b1-4)GlcNAc(b1-6)]GalNAc
# In short: as §1
# [3] = target: Neu5Ac(a2-6)Gal(b1-4)GlcNAc(b1-3)Gal(b1-4)GlcNAc(b1-6)[Gal(b1-3)]GalNAc
# In short: as §1
# [4] = target: Neu5Ac(a2-6)Gal(b1-4)GlcNAc(b1-3)Gal(b1-4)[Fuc(a1-3)]GlcNAc(b1-3)Gal(b1-4)[Fuc(a1-3)]GlcNAc
# In short: as §1
# [5] = target: Neu5Ac(a2-6)Gal(b1-4)GlcNAc(b1-3)GalNAc
# In short: as §1
# [6] = target: Neu5Ac(a2-6)Gal(b1-4)GlcNAc(b1-3)[Neu5Ac(a2-6)Gal(b1-4)GlcNAc(b1-6)]GalNAc
# In short: as §1
# [7] = target: Neu5Ac(a2-6)Gal(b1-4)GlcNAc(b1-6)GalNAc
# In short: as §1
# [8] = target: Neu5Ac(a2-6)Gal(b1-4)GlcNAc(b1-6)[Gal(b1-3)GlcNAc(b1-3)]Gal(b1-4)Glc
# In short: as §1
# [9] = target: Neu5Ac(a2-6)Gal(b1-4)GlcNAc(b1-6)[Gal(b1-3)]GalNAc
# In short: as §1
# [10] = target: Neu5Ac(a2-6)Gal(b1-4)GlcNAc6S
# In short: as §1
# Neu5Ac(a2-6)GalNAc = target: Neu5Ac(a2-6)GalNAc
# In short: as §1
# [11] = target: Neu5Ac(a2-6)GalNAc(b1-4)GlcNAc
# In short: as §1
# [12] = target: Neu5Ac(a2-6)GalNAc(b1-4)GlcNAc6S
# In short: as §1
# [13] = target: Neu5Ac(a2-6)GlcNAc(b1-4)GlcNAc
# In short: as §1
# [14] = target: Neu5Ac(a2-6)GlcNAc(b1-4)GlcNAc(b1-4)GlcNAc
# In short: as §1
# Neu5Ac(a2-8)Neu5Ac = target: Neu5Ac(a2-8)Neu5Ac
# In short: as §1
# [15] = target: Neu5Ac(a2-8)Neu5Ac(a2-3)Gal(b1-3)GalNAc(b1-4)[Neu5Ac(a2-3)]Gal(b1-4)Glc
# In short: as §1
# [16] = target: Neu5Ac(a2-8)Neu5Ac(a2-3)Gal(b1-3)GalNAc(b1-4)[Neu5Ac(a2-8)Neu5Ac(a2-3)]Gal(b1-4)Glc
# In short: as §1
# [17] = target: Neu5Ac(a2-8)Neu5Ac(a2-3)Gal(b1-4)Glc
# In short: as §1
# [18] = target: Neu5Ac(a2-8)Neu5Ac(a2-3)Gal(b1-4)GlcNAc
# In short: as §1
# [19] = target: Neu5Ac(a2-8)Neu5Ac(a2-3)[Gal(b1-3)GalNAc(b1-4)]Gal(b1-4)Glc
# In short: as §1
# [20] = target: Neu5Ac(a2-8)Neu5Ac(a2-3)[GalNAc(b1-4)]Gal(b1-4)Glc
# In short: as §1
# [21] = target: Neu5Ac(a2-8)Neu5Ac(a2-8)Neu5Ac
# In short: as §1
# [22] = target: Neu5Ac(a2-8)Neu5Ac(a2-8)Neu5Ac(a2-3)Gal(b1-4)Glc
# In short: as §1
# [23] = target: Neu5Ac(a2-8)Neu5Ac(a2-8)Neu5Ac(a2-3)[Gal(b1-3)GalNAc(b1-4)]Gal(b1-4)Glc
# In short: as §1
# [24] = target: Neu5Ac(a2-8)Neu5Ac(a2-8)Neu5Ac(a2-3)[GalNAc(b1-4)]Gal(b1-4)Glc
# In short: as §1
# [25] = target: Neu5Ac(a2-8)Neu5Ac(a2-8)Neu5Ac(a2-8)Neu5Ac(a2-3)[GalNAc(b1-4)]Gal(b1-4)Glc
# In short: as §1
# [26] = target: Neu5Ac(a2-8)Neu5Gc(a2-3)Gal(b1-4)GlcNAc
# In short: as §1
# [27] = target: Neu5Ac(b2-6)Gal(b1-4)GlcNAc
# In short: as §1
# Neu5Ac(b2-6)GalNAc = target: Neu5Ac(b2-6)GalNAc
# In short: as §1
# [28] = target: Neu5Ac9Ac(a2-3)Gal(b1-3)GlcNAc
# In short: as §1
# [29] = target: Neu5Ac9Ac(a2-3)Gal(b1-4)GlcNAc
# In short: as §1
# [30] = target: Neu5Ac9Ac(a2-6)Gal(b1-4)GlcNAc
# In short: as §1
# [31] = target: Neu5Gc(a2-3)Gal(b1-3)GlcNAc
# In short: as §1
# [32] = target: Neu5Gc(a2-3)Gal(b1-3)[Fuc(a1-4)]GlcNAc
# In short: as §1
# Neu5Gc(a2-3)Gal(b1-4)Glc = target: Neu5Gc(a2-3)Gal(b1-4)Glc
# In short: as §1
# [33] = target: Neu5Gc(a2-3)Gal(b1-4)GlcNAc
# In short: as §1
# [34] = target: Neu5Gc(a2-3)Gal(b1-4)GlcNAc(b1-3)Gal(b1-4)GlcNAc(b1-2)Man(a1-3)[Neu5Gc(a2-3)Gal(b1-4)GlcNAc(b1-3)Gal(b1-4)GlcNAc(b1-2)Man(a1-6)]Man(b1-4)GlcNAc(b1-4)GlcNAc
# In short: as §1
# [35] = target: Neu5Gc(a2-3)Gal(b1-4)[Fuc(a1-3)]GlcNAc
# In short: as §1
# [36] = target: Neu5Gc(a2-6)Gal(b1-4)GlcNAc
# In short: as §1
# Neu5Gc(a2-6)GalNAc = target: Neu5Gc(a2-6)GalNAc
# In short: as §1
# [37] = target: Neu5Gc(a2-8)Neu5Ac(a2-3)Gal(b1-4)GlcNAc
# In short: as §1
# [38] = target: Neu5Gc(a2-8)Neu5Gc(a2-3)Gal(b1-4)GlcNAc
# In short: as §1
# [39] = target: Neu5Gc(a2-8)Neu5Gc(a2-3)Gal(b1-4)GlcNAc(b1-3)Gal(b1-4)GlcNAc
# In short: as §1
# [40] = target: Neu5Gc(a2-8)Neu5Gc(a2-6)Gal(b1-4)GlcNAc
# In short: as §1
# [41] = target: Neu5Gc(b2-6)Gal(b1-4)GlcNAc
# In short: as §1
binder,measurement,setting,value
B1,glycan array binding signal (z-score),[1],-0.357
same,glycan array binding signal (z-score),[2],-0.516
same,glycan array binding signal (z-score),[3],0.884
same,glycan array binding signal (z-score),[4],1.62
same,glycan array binding signal (z-score),[5],-0.582
same,glycan array binding signal (z-score),[6],3.01
same,glycan array binding signal (z-score),[7],0.032
same,glycan array binding signal (z-score),[8],1.12
same,glycan array binding signal (z-score),[9],1.17
same,glycan array binding signal (z-score),[10],-0.574
same,glycan array binding signal (z-score),Neu5Ac(a2-6)GalNAc,-0.64
same,glycan array binding signal (z-score),[11],-0.176
same,glycan array binding signal (z-score),[12],-0.206
same,glycan array binding signal (z-score),[13],0.349
same,glycan array binding signal (z-score),[14],-0.879
same,glycan array binding signal (z-score),Neu5Ac(a2-8)Neu5Ac,-0.352
same,glycan array binding signal (z-score),[15],-0.409
same,glycan array binding signal (z-score),[16],0.126
same,glycan array binding signal (z-score),[17],-0.626
same,glycan array binding signal (z-score),[18],-0.905
same,glycan array binding signal (z-score),[19],-0.26
same,glycan array binding signal (z-score),[20],4.6
same,glycan array binding signal (z-score),[21],-0.475
same,glycan array binding signal (z-score),[22],-0.813
same,glycan array binding signal (z-score),[23],-0.862
same,glycan array binding signal (z-score),[24],1.04
same,glycan array binding signal (z-score),[25],0.826
same,glycan array binding signal (z-score),[26],-0.809
same,glycan array binding signal (z-score),[27],0.965
same,glycan array binding signal (z-score),Neu5Ac(b2-6)GalNAc,1.46
same,glycan array binding signal (z-score),[28],-0.731
same,glycan array binding signal (z-score),[29],-0.801
same,glycan array binding signal (z-score),[30],-0.564
same,glycan array binding signal (z-score),[31],-0.527
same,glycan array binding signal (z-score),[32],-0.585
same,glycan array binding signal (z-score),Neu5Gc(a2-3)Gal(b1-4)Glc,-0.558
same,glycan array binding signal (z-score),[33],-0.834
same,glycan array binding signal (z-score),[34],0.411
same,glycan array binding signal (z-score),[35],-0.017
same,glycan array binding signal (z-score),[36],-0.733
same,glycan array binding signal (z-score),Neu5Gc(a2-6)GalNAc,-0.513
same,glycan array binding signal (z-score),[37],-0.782
same,glycan array binding signal (z-score),[38],-0.809
same,glycan array binding signal (z-score),[39],-0.762
same,glycan array binding signal (z-score),[40],-0.754
same,glycan array binding signal (z-score),[41],1.59
